Data source: PubChem BioAssay AID1053209 (Peter MacCallum Cancer Centre, 2014)
Aim: 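Follow-up of single siRNAs that strengthen doxorubicin killing in osteosarcoma cells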 (follow-up of hits). Cells: mouse primary osteosarcoma cells. Knock-down reagent: single siRNA against mouse genes, 25 nM (text also states 40 nM). Duration: about 120 h (48 h before drug, then 72 h with drug). Treatment: doxorubicin 100 nM (about IC30-40), added 48 h after transfection, for 72 h. Read-out: 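ATP-based luminescent viability, with or without doxorubicin, relative to non-targeting control NT1, mean of two replicates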. Direction: viability with doxorubicin, vs NT1: higher = more viable cells under doxorubicin; viability ratio, doxorubicin over no drug: higher = less sensitisation to doxorubicin; viability without drug, vs NT1: higher = more viable cells without drug. Rule for the call: 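Counted as active (class LC dox) if viability falls to 0.7 of NT1 or below under doxorubicin but stays within 0.7 to 1.1 without drug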.
This is a random part of about 1,580 reagents. 207 of all reagents (13%) count as active. 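Rows are single siRNAs; four siRNAs per gene were tested, a gene counting as confirmed only when at least two agree.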 The numbers tell different reagents against one gene apart.

gene | reagent no. | combined effect class | viability with doxorubicin, vs NT1 | viability ratio, doxorubicin over no drug | viability without drug, vs NT1 | activity call
Prkaa2 | 1 | normal viability with and without drug | 1 | 1.11 | 0.9 | inactive
Prkaa2 | 2 | normal viability with and without drug | 0.84 | 0.95 | 0.88 | inactive
Prkaa2 | 3 | normal viability with and without drug | 0.98 | 1 | 0.98 | inactive
Prkaa2 | 4 | high viability only with doxorubicin | 1.18 | 1.11 | 1.06 | inactive
Rpl13 | 1 | low viability with and without drug | 0.24 | 0.83 | 0.29 | inactive
Rpl13 | 2 | low viability with and without drug | 0.24 | 1 | 0.24 | inactive
Rpl13 | 3 | low viability with and without drug | 0.19 | 0.79 | 0.24 | inactive
Rpl13 | 4 | low viability with and without drug | 0.16 | 0.62 | 0.26 | inactive
Rassf3 | 1 | normal viability with and without drug | 0.96 | 0.91 | 1.06 | inactive
Rassf3 | 2 | normal viability with and without drug | 1.01 | 1.04 | 0.97 | inactive
Rassf3 | 3 | low viability only with doxorubicin; normal without drug | 0.68 | 0.72 | 0.94 | active
Rassf3 | 4 | normal viability with and without drug | 1.06 | 1.15 | 0.92 | inactive
Bag1 | 1 | normal viability with and without drug | 1.06 | 1.1 | 0.96 | inactive
Bag1 | 2 | normal viability with and without drug | 0.88 | 0.88 | 1 | inactive
Bag1 | 3 | normal viability with and without drug | 1.04 | 1.11 | 0.94 | inactive
Bag1 | 4 | normal viability with and without drug | 1.06 | 1.1 | 0.96 | inactive
Sf3b2 | 1 | low viability only with doxorubicin; normal without drug | 0.41 | 0.52 | 0.79 | active
Sf3b2 | 2 | low viability with and without drug | 0.26 | 0.42 | 0.62 | inactive
Sf3b2 | 3 | low viability with and without drug | 0.26 | 0.76 | 0.34 | inactive
Sf3b2 | 4 | low viability with and without drug | 0.4 | 0.67 | 0.6 | inactive
Rgs20 | 1 | normal viability with and without drug | 0.98 | 0.95 | 1.03 | inactive
Rgs20 | 2 | low viability only with doxorubicin; normal without drug | 0.58 | 0.82 | 0.71 | active
Rgs20 | 3 | normal viability with and without drug | 0.96 | 1.04 | 0.92 | inactive
Rgs20 | 4 | normal viability with and without drug | 0.91 | 0.87 | 1.05 | inactive
Cadps2 | 1 | normal viability with and without drug | 0.94 | 0.97 | 0.97 | inactive
Cadps2 | 2 | normal viability with and without drug | 1.09 | 1.1 | 0.99 | inactive
Cadps2 | 3 | normal viability with and without drug | 0.94 | 1.01 | 0.93 | inactive
Cadps2 | 4 | normal viability with and without drug | 0.8 | 0.93 | 0.86 | inactive
Cwc22 | 1 | normal viability with and without drug | 0.92 | 1 | 0.92 | inactive
Cwc22 | 2 | normal viability with and without drug | 0.8 | 1 | 0.8 | inactive
Cwc22 | 3 | normal viability with and without drug | 0.85 | 0.92 | 0.92 | inactive
Cwc22 | 4 | low viability only with doxorubicin; normal without drug | 0.48 | 0.58 | 0.83 | active
Prpf8 | 1 | low viability with and without drug | 0.34 | 0.56 | 0.61 | inactive
Prpf8 | 2 | low viability with and without drug | 0.46 | 0.84 | 0.55 | inactive
Prpf8 | 3 | normal viability with and without drug | 0.92 | 0.94 | 0.98 | inactive
Prpf8 | 4 | low viability with and without drug | 0.26 | 0.48 | 0.54 | inactive
Usp1 | 1 | normal viability with and without drug | 0.88 | 1 | 0.88 | inactive
Usp1 | 2 | normal viability with and without drug | 0.98 | 0.98 | 1 | inactive
Usp1 | 3 | normal viability with and without drug | 1.02 | 1.01 | 1.01 | inactive
Usp1 | 4 | normal viability with and without drug | 0.94 | 0.95 | 0.99 | inactive
